Experimental findings from publication PMC4177916, “Characterization of the Sterol and Phosphatidylinositol 4-Phosphate Binding Properties of Golgi-Associated OSBP-Related Protein 9 (ORP9)” (PLoS ONE, 2014) are described below.

The data set concerns T1, OSBP.
T1 construct: His-tagged
In words: [3H]cholesterol competition, Talon resin. The data set is classed as binding. Particulars: pH 7.4, 20 °C, 300 mM KCl, Triton X-100, against 100 nM [3H]cholesterol.

For `CC(C)CCC[C@@H](C)[C@H]1CC[C@H]2C3=CC=C4C[C@@H](O)CC[C@]4(C)C3=CC[C@]12C` [CTL, cholestatrienol], under “not extracted from liposomes by OSBP”, the “% inhibition at 2 μM” value is 50%. Consider `CC(C)[C@@H](C)/C=C/[C@@H](C)[C@H]1CC[C@H]2C3=CC=C4C[C@@H](O)CC[C@]4(C)C3=CC[C@]12C` [DHE, dehydroergosterol], for which the “% inhibition at 250-750 nM” value is 10–15%.

For orientation: % inhibition means the relative decrease from the control value, in per cent.
